The source of these data is paper PMC7102939, “N 1-Methylpseudouridine substitution enhances the performance of synthetic mRNA switches in cells”.

Construct, isoform or probe ends are uncertain for at least one entry. A weaker result is weaker than the reference pair of the same experiment.

The test system of this data set is U1A. Description: EMSA. Conditions: 1 uM RNA, 4 C 30 min, 12% native PAGE at 4 C, 1x from 5x buffer: U1A 20 mM HEPES pH 7.5, 80 mM KCl, 20 mM NaCl, 2 mM DTT, MS2CP 40 mM HEPES pH 7.5, 10 mM NaCl, recombinant protein, protein details: His. A general note: In EMSA bound probe runs differently from free probe, usually more slowly.

Take “GACAGCAUUGUACCCAGAGUCUGUCCCCAGACAUUGCACCUGGCGCUGUC [2x U1A aptamer, m1Ψ]”: the binding result (affinity similar to native U, all U replaced by N1-methylpseudouridine) is reported as “binds”.

Turning to “GACAGCAUUGUACCCAGAGUCUGUCCCCAGACAUUGCACCUGGCGCUGUC [2x U1A aptamer, native U]”, the binding result is “binds”.

On to “GACAGCAUUGUACCCAGAGUCUGUCCCCAGACAUUGCACCUGGCGCUGUC [2x U1A aptamer, Ψ]”, for which the binding result (relatively weaker than native U and m1Ψ, all U replaced by pseudouridine) is recorded as “binds more weakly”.
